Patent publication US20220275080A1
Substitutions are numbered along the chain they refer to. No constants are given. Whether binding was seen depends on the method and setting. Some entries that bind do so weakly or less than the wild type.

B1: A7 clone, Lrig-1 protein-specific monoclonal antibody (Production Example 1) (antibody, mouse IgG2a, V domains shown)
VH: EVQLLESGGGLVQPGGSLRLSCAASGFTFSGYDMSWVRQAPGKGLEWVSLIYPDSGNKYYADSVKGRFTISRDNSKNTLYLQMNSLRAEDTAVYYCARDAGLSWAGAFDYWGQGTLVTVSS
VL: QSVLTQPPSASGTPGQRVTISCSGSSSNIGSNYVTWYQQLPGTAPKLLIYSDSHRPSGVPDRFSGSKSGTSASLAISGLQSEDEADYYCGSWDYSLSAYVFGGGTKLTVLR
B2: C8 clone, Lrig-1 protein-specific monoclonal antibody (Production Example 2) (antibody, mouse IgG2a, V domains shown)
VH: EVQLLESGGGLVQPGGSLRLSCAASGFTFSNYYMSWVRQAPGKGLEWVSGISPGDSSTYYADSVKGRFTISRDNSKNTLYLQMNSLRAEDTAVYYCAKGLYSNPNEPFDYWGQGTLVTVSS
VL: B1 VL with S23T, T35S, S51D, H54Q, Q80R, S91T, S97N, A98G
B3: E7 clone, Lrig-1 protein-specific monoclonal antibody (Production Example 3) (antibody, mouse IgG2a, V domains shown)
VH: EVQLLESGGGLVQPGGSLRLSCAASGFTFSSYDMSWVRQAPGKGLEWVSGISPDGSNIYYADSVKGRFTISRDNSKNTLYLQMNSLRAEDTAVYYCAKVGLRCRYEACSYAYGMDVWGQGTLVTVSS
VL: B1 VL with T35S, Q80R, G90A, S91T, Y94S, S97N, A98G
B4: G3 clone, Lrig-1 protein-specific monoclonal antibody (Production Example 4) (antibody, mouse IgG2a, V domains shown)
VH: EVQLLESGGGLVQPGGSLRLSCAASGFTFSNYDMSWVRQAPGKGLEWVSSISPSSGSIYYADSVKGRFTISRDNSKNTLYLQMNSLRAEDTAVYYCAKDLDAFWRPSFDYWGQGTLVTVSS
VL: B1 VL with S23T, S31N, Y33N, T35N, Q80R, Y94D

Biological target: T1, Lrig-1 protein expressed on the surface of L cells (leucine-rich and immunoglobulin-like domains 1) (human) (UniProt Q96JA1)
T1 sequence: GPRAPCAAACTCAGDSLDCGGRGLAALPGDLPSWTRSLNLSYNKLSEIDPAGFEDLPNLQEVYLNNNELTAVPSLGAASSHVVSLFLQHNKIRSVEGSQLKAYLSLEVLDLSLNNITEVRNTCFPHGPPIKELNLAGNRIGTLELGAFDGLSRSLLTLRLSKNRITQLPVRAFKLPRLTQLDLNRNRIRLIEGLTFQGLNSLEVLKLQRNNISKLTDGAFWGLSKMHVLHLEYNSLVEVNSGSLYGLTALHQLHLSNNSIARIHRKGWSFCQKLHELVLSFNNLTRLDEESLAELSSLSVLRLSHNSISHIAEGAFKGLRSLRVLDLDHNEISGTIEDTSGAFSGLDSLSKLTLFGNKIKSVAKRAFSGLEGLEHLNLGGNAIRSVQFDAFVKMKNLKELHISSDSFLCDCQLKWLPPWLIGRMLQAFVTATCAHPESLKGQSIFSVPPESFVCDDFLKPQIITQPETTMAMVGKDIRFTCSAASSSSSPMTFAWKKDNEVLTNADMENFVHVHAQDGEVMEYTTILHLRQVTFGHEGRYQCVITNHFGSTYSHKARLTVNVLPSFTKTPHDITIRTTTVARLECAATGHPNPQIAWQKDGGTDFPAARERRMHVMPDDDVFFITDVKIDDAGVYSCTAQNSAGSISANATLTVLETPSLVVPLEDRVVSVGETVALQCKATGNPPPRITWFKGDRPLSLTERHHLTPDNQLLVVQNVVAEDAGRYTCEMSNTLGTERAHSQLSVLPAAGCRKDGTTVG
Test: FACS on L cells stably expressing Lrig-1, eFluor 670 anti-mouse secondary antibody

Binder | binding
B1 | binds
B2 | binds
B3 | binds
B4 | binds
